The list does not hold the whole screen: it is rich in T/C values a quarter to a half above the control, in often repeated tests (any T/C) and in doses without a T/C. Other doses and runs of a compound stand elsewhere. T/C gives the treated animals as a percentage of the vehicle group. Some entries give survivors of the animals treated and no T/C: the source files T/C as zero there, which appears to mark a toxic dose or a test without result, not a measured value. Some doses without a T/C left all or most animals alive at the check, yet need not have been tolerated: the source hardly ever lists a survival T/C far under the control, and the zero likely stands for such cases as well. Counts of survivors are from the toxicity check (mostly the fifth day) where no day follows; animals may have died later. Schedule codes are those of the source, read here as Q, the interval in days (D) or hours (H), X, the number of doses. Counts like (3×) say how often a value occurs here. Some entries hold several experiments; the results are listed from low to high. For survival time, this PubChem deposit counts one and a half times the control or more as active, and values a quarter to a half above the control carry no call in these data; other NCI protocols may use other cut-offs.
System: BDF1 mice, B16 melanoma ip, median survival T/C
Assay: NCI In Vivo Anticancer Drug Screen. Data for tumor model B16 Melanoma (intraperitoneal) in B6D2F1 (BDF1) mice
Conditions: T/C endpoint: median survival time, higher T/C = longer survival
Procedure, shortened: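 Antitumor activity is assessed in mice bearing a transplanted tumor, with survival or tumor size compared against vehicle-dosed controls and expressed as T/C.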

[1] = dose: 12.5 mg/kg/injection, schedule: Q01DX009 (ip), vehicle: saline
[2] = dose: 50.0 mg/kg/injection, schedule: Q01DX009 (ip), vehicle: saline
[3] = dose: 100.0 mg/kg/injection, schedule: Q01DX009 (ip), vehicle: Klucel (hydroxypropylcellulose) (HPC)
[4] = dose: 200.0 mg/kg/injection, schedule: Q01DX009 (ip), vehicle: Klucel (hydroxypropylcellulose) (HPC)
[5] = dose: 400.0 mg/kg/injection, schedule: Q01DX009 (ip), vehicle: Klucel (hydroxypropylcellulose) (HPC)
[6] = dose: 100.0 mg/kg/injection, schedule: Q01DX009 (ip), vehicle: saline with Tween-80
[7] = dose: 200.0 mg/kg/injection, schedule: Q01DX009 (ip), vehicle: saline with Tween-80
[8] = dose: 400.0 mg/kg/injection, schedule: Q01DX009 (ip), vehicle: saline with Tween-80
[9] = dose: 12.5 mg/kg/injection, schedule: Q01DX009 (ip), vehicle: Klucel (hydroxypropylcellulose) (HPC)
[10] = dose: 25.0 mg/kg/injection, schedule: Q01DX009 (ip), vehicle: Klucel (hydroxypropylcellulose) (HPC)
[11] = dose: 50.0 mg/kg/injection, schedule: Q01DX009 (ip), vehicle: Klucel (hydroxypropylcellulose) (HPC)

In the case of `CN(C)CCC=C1c2ccccc2C=Cc2ccccc21`, the T/C (dose: 3.12 mg/kg/injection, schedule: Q01DX009 (ip), vehicle: saline) is reported as 126 % of control, the survivor count [1] is reported as 7 of 10 and the survivor count [2] is reported as 0 of 10. For the same molecule, the survivor count (dose: 100.0 mg/kg/injection, schedule: Q01DX009 (ip), vehicle: saline) was 0 of 10 (2×), the survivor count (dose: 200.0 mg/kg/injection, schedule: Q01DX009 (ip), vehicle: saline) was 0 of 10 (2×) and the survivor count (dose: 400.0 mg/kg/injection, schedule: Q01DX009 (ip), vehicle: saline) was 0 of 10 (2×).
`COC(=O)C(Cc1c[nH]c2ccccc12)NC(=O)C(NC(=O)OC(C)(C)C)C(C)C` (centres undefined) was tested, and the survivor count [3] was 10 of 10, the survivor count [4] was 10 of 10 and the survivor count [5] was 10 of 10.
In the case of `CCCn1c(=S)[nH]c2ccccc2c1=O`, the T/C [6] is reported as 125 % of control, the survivor count [4] is reported as 10 of 10 and the survivor count [7] is reported as 6 of 6. The survivor count [5] was 8 of 10 and the survivor count [8] was 5 of 6.
`CCC[CH2][Sn]1([CH2]CCC)[O]C2C(CO)OC(n3ccc(N)nc3=O)C2[O]1` (centres undefined) was tested, and the survivor count (dose: 0.38 mg/kg/injection, schedule: Q01DX009 (ip), vehicle: Klucel (hydroxypropylcellulose) (HPC)) was 10 of 10, the survivor count (dose: 0.75 mg/kg/injection, schedule: Q01DX009 (ip), vehicle: Klucel (hydroxypropylcellulose) (HPC)) was 10 of 10 and the T/C (dose: 0.78 mg/kg/injection, schedule: Q01DX009 (ip), vehicle: Klucel (hydroxypropylcellulose) (HPC)) was 136 % of control. The survivor count (dose: 1.5 mg/kg/injection, schedule: Q01DX009 (ip), vehicle: Klucel (hydroxypropylcellulose) (HPC)) was 10 of 10, the T/C (dose: 1.56 mg/kg/injection, schedule: Q01DX009 (ip), vehicle: Klucel (hydroxypropylcellulose) (HPC)) was 148 % of control and the survivor count (dose: 3.0 mg/kg/injection, schedule: Q01DX009 (ip), vehicle: Klucel (hydroxypropylcellulose) (HPC)) was 9 of 10. For the same molecule, the T/C (dose: 3.12 mg/kg/injection, schedule: Q01DX009 (ip), vehicle: Klucel (hydroxypropylcellulose) (HPC)) was 141 % of control, the survivor count (dose: 6.0 mg/kg/injection, schedule: Q01DX009 (ip), vehicle: Klucel (hydroxypropylcellulose) (HPC)) was 10 of 10 and the survivor count (dose: 12.0 mg/kg/injection, schedule: Q01DX009 (ip), vehicle: Klucel (hydroxypropylcellulose) (HPC)) was 1 of 10. The survivor count [9] was 0 of 10 and 6 of 10 and the survivor count [10] was 0 of 10.
In the case of `CCN(CC)CCSC(=S)N1c2ccccc2Sc2ccccc21`, the survivor count (dose: 0.54 mg/kg/injection, schedule: Q01DX009 (ip), vehicle: Klucel (hydroxypropylcellulose) (HPC)) is reported as 6 of 10, the survivor count (dose: 35.0 mg/kg/injection, schedule: Q01DX009 (ip), vehicle: Klucel (hydroxypropylcellulose) (HPC)) is reported as 9 of 10 and the survivor count (dose: 70.0 mg/kg/injection, schedule: Q01DX009 (ip), vehicle: Klucel (hydroxypropylcellulose) (HPC)) is reported as 10 of 10. The survivor count (dose: 140.0 mg/kg/injection, schedule: Q01DX009 (ip), vehicle: Klucel (hydroxypropylcellulose) (HPC)) was 10 of 10 and the survivor count (dose: 280.0 mg/kg/injection, schedule: Q01DX009 (ip), vehicle: Klucel (hydroxypropylcellulose) (HPC)) was 10 of 10.
For `CCCCNC(C)(C)C1(c2ccc(Cl)cc2)SSC(c2ccc(Cl)cc2)(C(C)(C)NCCCC)SS1` (centres undefined), the survivor count (dose: 75.0 mg/kg/injection, schedule: Q01DX009 (ip), vehicle: Klucel (hydroxypropylcellulose) (HPC)) was 8 of 10, the survivor count (dose: 150.0 mg/kg/injection, schedule: Q01DX009 (ip), vehicle: Klucel (hydroxypropylcellulose) (HPC)) was 9 of 10 and the survivor count (dose: 300.0 mg/kg/injection, schedule: Q01DX009 (ip), vehicle: Klucel (hydroxypropylcellulose) (HPC)) was 8 of 10.
For `CCCCCCC1CCC(N)CC1` (centres undefined), the survivor count [10] was 10 of 10 and the survivor count [11] was 10 of 10.
In the case of `NC(N)=NCCCC(NC(=O)OCc1ccccc1)C(=O)O` (centres undefined), the survivor count [9] is reported as 10 of 10, the survivor count [10] is reported as 10 of 10 and the survivor count [11] is reported as 10 of 10. The survivor count [3] was 10 of 10, the survivor count [4] was 10 of 10 and the survivor count [5] was 10 of 10.
With `N=C(N)c1ccc(N=NNc2ccc(C(=N)N)cc2)cc1` the survivor count [6] was 3 of 10 and the survivor count [7] was 0 of 10.
`O=C(O)C(O)C(O)C(O)C(O)C(=O)O` (centres undefined) was tested, and the survivor count (dose: 1200.0 mg/kg/injection, schedule: Q01DX009 (ip), vehicle: Klucel (hydroxypropylcellulose) (HPC)) was 5 of 10.
With `CC[CH2][Sn]([CH2]CC)([CH2]CC)[O][Sn]([CH2]CC)([CH2]CC)[CH2]CC` the survivor count (dose: 2.0 mg/kg/injection, schedule: Q04DX003 (ip), vehicle: saline) was 10 of 10.
For `CC[n+]1c(-c2ccccc2)c2cc(N)ccc2c2ccc(N)cc21`, the T/C (dose: 6.25 mg/kg/injection, schedule: Q01DX009 (ip), vehicle: saline) was 135 % of control, the T/C (dose: 12.0 mg/kg/injection, schedule: Q01DX009 (ip), vehicle: water) was 135 % of control and the T/C [1] was 135 % of control. The survivor count (dose: 16.0 mg/kg/injection, schedule: Q01DX009 (ip), vehicle: saline sonified) was 6 of 6, the survivor count (dose: 25.0 mg/kg/injection, schedule: Q01DX009 (ip), vehicle: saline) was 10 of 10 and the survivor count (dose: 32.0 mg/kg/injection, schedule: Q01DX009 (ip), vehicle: saline sonified) was 6 of 6. The survivor count [2] was 10 of 10.
For `CCC/C=C(/CC(=O)O)C(=O)O`, the survivor count (dose: 150.0 mg/kg/injection, schedule: Q04DX003 (ip), vehicle: saline with Tween-80) was 10 of 10 and the survivor count (dose: 300.0 mg/kg/injection, schedule: Q04DX003 (ip), vehicle: saline with Tween-80) was 10 of 10.
For `[Cu+2].[NH-]CC(=O)O.[NH-]CC(=O)O`, the survivor count (dose: 20.0 mg/kg/injection, schedule: Q01DX009 (ip), vehicle: saline) was 0 of 10.
With `CCCCCCCCCCCCCCOC(=O)Cl` the survivor count [4] was 10 of 10.
With `O=C(O)c1c(O)c(-c2ccccc2)nc2ccccc12` the survivor count [4] was 10 of 10.
`CC(C)c1ccc(C(=O)CCCCl)cc1` was tested, and the survivor count [8] was 7 of 10.
In the case of `CC1CN1P(=S)(Oc1ccccc1)N1CC1C` (centres undefined), the survivor count [7] is reported as 10 of 10.
In the case of `O=CNC(CSSCC(NC=O)C(=O)O)C(=O)O` (centres undefined), the survivor count [8] is reported as 9 of 10.
For `CC(=O)Nc1cc2c(cc1Br)-c1ccccc1C2O` (centres undefined), the survivor count (dose: 6.25 mg/kg/injection, schedule: Q01DX009 (ip), vehicle: saline with Tween-80) was 10 of 10.
`C#CC1(OCC(CCl)OC(N)=O)CCCCC1` (centres undefined) was tested, and the survivor count (dose: 50.0 mg/kg/injection, schedule: Q01DX009 (ip), vehicle: saline with Tween-80) was 10 of 10, the survivor count [7] was 10 of 10 and the survivor count [8] was 10 of 10.
For `CO[C@H](/C(C)=C/C=C/C(C)=C/c1coc(C)n1)[C@H](C)[C@H]1C[C@@H](O)[C@@]2(C)O[C@H]2/C=C/[C@@H](C)[C@@H]2C[C@@H](CC(=O)O2)C[C@H]2O[C@@H]2C(=O)O1`, the T/C (dose: 0.1 mg/kg/injection, schedule: Q01DX009 (ip), vehicle: Klucel (hydroxypropylcellulose) (HPC)) was 126 % of control, the T/C (dose: 0.2 mg/kg/injection, schedule: Q01DX009 (ip), vehicle: Klucel (hydroxypropylcellulose) (HPC)) was 142 % of control and the T/C (dose: 0.25 mg/kg/injection, schedule: Q01DX009 (sc), vehicle: Klucel (hydroxypropylcellulose) (HPC)) was 145 % of control. The survivor count (dose: 0.8 mg/kg/injection, schedule: Q01DX009 (ip), vehicle: Klucel (hydroxypropylcellulose) (HPC)) was 10 of 10, the survivor count (dose: 1.0 mg/kg/injection, schedule: Q01DX009 (sc), vehicle: Klucel (hydroxypropylcellulose) (HPC)) was 10 of 10 and the survivor count (dose: 1.6 mg/kg/injection, schedule: Q01DX009 (ip), vehicle: Klucel (hydroxypropylcellulose) (HPC)) was 7 of 10. For the same molecule, the survivor count (dose: 2.0 mg/kg/injection, schedule: Q01DX009 (sc), vehicle: Klucel (hydroxypropylcellulose) (HPC)) was 3 of 10 and the survivor count (dose: 4.0 mg/kg/injection, schedule: Q01DX009 (sc), vehicle: Klucel (hydroxypropylcellulose) (HPC)) was 0 of 10.
`CC(C)(C)OC(=O)NCCCCC(NC(=O)OCc1ccccc1)C(=O)ON1C(=O)CCC1=O` (centres undefined) was tested, and the survivor count [8] was 10 of 10.
`[O-][n+]1c(CCl)nc2cccc3c2c1-c1ccccc1-3` was tested, and the survivor count [7] was 9 of 10.

Source: PubChem BioAssay AID192 (DTP/NCI, 2004)
